PubChem BioAssay AID1259308 | NCATS, 2017

- Test: 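Candidate targets for better recombinant protein yield in mammalian cells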 (primary screen)
- System: human HEK293 embryonic kidney cells stably expressing firefly luciferase (HEK-CMV-Luc2-Hygro)
- Reagent: single siRNA against human genes, 0.8 pmol siRNA per well
- Timing: 72 h
- Detection: 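Reporter luminescence and viable-cell signal on separate replicate plates, given as percent of non-targeting control and median/MAD z-scores, plus per-cell luciferase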
- Scale: total luciferase, z-score and total luciferase, % of control: higher = more reporter protein produced; luciferase per cell, z-score: higher = more reporter output per viable cell; viable cells, % of control: higher = more viable cells
- Call rule: 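An siRNA counts as active if its total luciferase robust z-score exceeds 3; genes with two or more such siRNAs out of three were retested with fresh siRNAs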
- Meaning of the calls: active = raised luciferase; inactive = no rise
Shown is an unselected part of about 59,000 reagents. About 1,510 of them (2.6%) count as active. 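Calls use total luciferase alone and ignore viability, so some active siRNAs may act by altering cell number.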 Unmarked entries are inactive. Reagents against one gene are numbered here.

target | reagent no. | total luciferase, z-score | total luciferase, % of control | luciferase per cell, z-score | viable cells, % of control
SH2B3 (SH2B adaptor protein 3) | 1 | -1.51 | 51.9 | -1.15 | 78.5
SH2B3 (SH2B adaptor protein 3) | 2 | 0.903 | 99.8 | 1.17 | 82
SH2B3 (SH2B adaptor protein 3) | 3 | 2.32 | 128 | 1.38 | 99.3
STT3A (STT3 oligosaccharyltransferase complex catalytic subunit A) | 1 | -0.205 | 77.8 | -0.587 | 101
STT3A (STT3 oligosaccharyltransferase complex catalytic subunit A) | 2 | -0.528 | 71.4 | -0.702 | 96
STT3A (STT3 oligosaccharyltransferase complex catalytic subunit A) | 3 | 0.497 | 91.8 | 0.293 | 94.9
EEF1A1P33 | 1 | -0.125 | 79.4 | -0.464 | 100
EEF1A1P33 | 2 | 0.236 | 86.6 | 1.15 | 71.5
EEF1A1P33 | 3 | 0.989 | 102 | 1.77 | 71.1
FBXL6 (F-box and leucine rich repeat protein 6) | 1 | 0.986 | 101 | 0.723 | 93.8
FBXL6 (F-box and leucine rich repeat protein 6) | 2 | 1.87 | 119 | 1.78 | 83.4
FBXL6 (F-box and leucine rich repeat protein 6) | 3 | 1.09 | 104 | 0.184 | 110
CST8 (cystatin 8) | 1 | -0.505 | 71.9 | -0.437 | 90.1
CST8 (cystatin 8) | 2 | -2.07 | 40.6 | -1.31 | 64.1
CST8 (cystatin 8) | 3 | 3.47 (active) | 151 | 2.22 | 94
IFT70A (intraflagellar transport 70A) | 1 | 1.97 | 121 | 2.7 | 66.4
IFT70A (intraflagellar transport 70A) | 2 | -0.853 | 64.9 | -0.422 | 81.1
IFT70A (intraflagellar transport 70A) | 3 | -0.237 | 77.2 | -1.03 | 113
METTL21C (methyltransferase 21C, AARS1 lysine) | 1 | -0.402 | 73.9 | 0.136 | 79.7
METTL21C (methyltransferase 21C, AARS1 lysine) | 2 | -1.39 | 54.3 | -1.29 | 85.2
METTL21C (methyltransferase 21C, AARS1 lysine) | 3 | 3.68 (active) | 155 | 2.97 | 79.3
RELL1 (RELT like 1) | 1 | 0.288 | 87.6 | 0.586 | 83.9
RELL1 (RELT like 1) | 2 | -0.925 | 63.5 | 1.67 | 45.8
RELL1 (RELT like 1) | 3 | -0.0569 | 80.8 | -0.0778 | 92.1
PHACTR4 (phosphatase and actin regulator 4) | 1 | -0.186 | 78.2 | -0.425 | 97.7
PHACTR4 (phosphatase and actin regulator 4) | 2 | -0.918 | 63.6 | -1.33 | 101
PHACTR4 (phosphatase and actin regulator 4) | 3 | -0.79 | 66.2 | 0.0956 | 72.1
SOS1 (SOS Ras/Rac guanine nucleotide exchange factor 1) | 1 | 0.487 | 91.6 | 0.064 | 101
SOS1 (SOS Ras/Rac guanine nucleotide exchange factor 1) | 2 | -0.806 | 65.9 | -1.38 | 106
SOS1 (SOS Ras/Rac guanine nucleotide exchange factor 1) | 3 | -0.277 | 76.4 | -1.14 | 115
TOLLIP (toll interacting protein) | 1 | 0.288 | 87.6 | -0.112 | 101
TOLLIP (toll interacting protein) | 2 | 0.364 | 89.1 | -0.34 | 109
TOLLIP (toll interacting protein) | 3 | 1.4 | 110 | 0.34 | 112
USP24 (ubiquitin specific peptidase 24) | 1 | -0.667 | 68.6 | -0.466 | 86.7
USP24 (ubiquitin specific peptidase 24) | 2 | -1.43 | 53.5 | -1.16 | 81.3
USP24 (ubiquitin specific peptidase 24) | 3 | -1.15 | 59.1 | -0.473 | 74.8
PSME3IP1 (proteasome activator subunit 3 interacting protein 1) | 1 | -0.243 | 77.1 | -0.863 | 108
PSME3IP1 (proteasome activator subunit 3 interacting protein 1) | 2 | -0.0529 | 80.8 | -0.531 | 104
PSME3IP1 (proteasome activator subunit 3 interacting protein 1) | 3 | -0.521 | 71.5 | -0.374 | 88.2
FSCN1 (fascin actin-bundling protein 1) | 1 | 0.842 | 98.6 | 0.245 | 103
FSCN1 (fascin actin-bundling protein 1) | 2 | -2.2 | 38.2 | -2.4 | 80.3
FSCN1 (fascin actin-bundling protein 1) | 3 | -0.215 | 77.6 | -0.471 | 98.2
MCF2L (MCF.2 cell line derived transforming sequence like) | 1 | -1.01 | 61.7 | -1.68 | 107
MCF2L (MCF.2 cell line derived transforming sequence like) | 2 | 0.679 | 95.4 | 0.988 | 82.2
MCF2L (MCF.2 cell line derived transforming sequence like) | 3 | 0.273 | 87.3 | 0.675 | 81.7
TRAIP (TRAF interacting protein) | 1 | -0.118 | 79.5 | 0.0924 | 86.8
TRAIP (TRAF interacting protein) | 2 | -0.266 | 76.6 | -0.244 | 91.3
TRAIP (TRAF interacting protein) | 3 | -0.104 | 79.8 | -0.329 | 97.3
TMEM87B (transmembrane protein 87B) | 1 | 0.64 | 94.6 | 0.186 | 101
TMEM87B (transmembrane protein 87B) | 2 | 1.83 | 118 | 1.26 | 94.7
TMEM87B (transmembrane protein 87B) | 3 | -1.08 | 60.4 | -1.69 | 105
SMPDL3B (sphingomyelin phosphodiesterase acid like 3B) | 1 | -0.496 | 72 | -0.755 | 98.2
SMPDL3B (sphingomyelin phosphodiesterase acid like 3B) | 2 | 0.475 | 91.3 | 0.327 | 93.6
SMPDL3B (sphingomyelin phosphodiesterase acid like 3B) | 3 | 0.465 | 91.1 | 0.0405 | 101
UBE3B (ubiquitin protein ligase E3B) | 1 | 0.492 | 91.7 | 0.323 | 94.1
UBE3B (ubiquitin protein ligase E3B) | 2 | 0.155 | 85 | 0.786 | 77.2
UBE3B (ubiquitin protein ligase E3B) | 3 | -0.235 | 77.2 | -0.464 | 97.5

Entries listed so far called active (2):
target | reagent no. | total luciferase, z-score | total luciferase, % of control | luciferase per cell, z-score | viable cells, % of control
CST8 (cystatin 8) | 3 | 3.47 (active) | 151 | 2.22 | 94
METTL21C (methyltransferase 21C, AARS1 lysine) | 3 | 3.68 (active) | 155 | 2.97 | 79.3
